{"sequences": {"note": "Sequences of proteins named here, by UniProt entry; tags and fusion partners are left off.", "UniProt Q9ULV4": "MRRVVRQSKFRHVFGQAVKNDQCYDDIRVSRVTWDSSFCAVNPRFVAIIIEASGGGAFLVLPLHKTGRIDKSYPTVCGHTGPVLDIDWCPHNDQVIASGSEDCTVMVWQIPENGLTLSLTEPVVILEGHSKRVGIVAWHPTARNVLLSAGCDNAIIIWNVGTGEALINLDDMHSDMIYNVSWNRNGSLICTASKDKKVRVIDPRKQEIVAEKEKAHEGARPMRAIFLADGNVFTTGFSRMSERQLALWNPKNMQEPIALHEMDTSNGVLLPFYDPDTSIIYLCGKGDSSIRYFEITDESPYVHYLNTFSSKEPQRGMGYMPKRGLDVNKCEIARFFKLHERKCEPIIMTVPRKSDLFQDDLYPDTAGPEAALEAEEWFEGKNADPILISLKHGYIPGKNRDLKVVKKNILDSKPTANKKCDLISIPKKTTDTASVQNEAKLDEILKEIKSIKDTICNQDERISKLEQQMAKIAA"}, "source": "paper doi:10.1101/2020.09.21.306522", "molecular_target": "T1, GFP-tagged MICAL1 (human) (UniProt Q8TDZ2)", "T1 sequence": "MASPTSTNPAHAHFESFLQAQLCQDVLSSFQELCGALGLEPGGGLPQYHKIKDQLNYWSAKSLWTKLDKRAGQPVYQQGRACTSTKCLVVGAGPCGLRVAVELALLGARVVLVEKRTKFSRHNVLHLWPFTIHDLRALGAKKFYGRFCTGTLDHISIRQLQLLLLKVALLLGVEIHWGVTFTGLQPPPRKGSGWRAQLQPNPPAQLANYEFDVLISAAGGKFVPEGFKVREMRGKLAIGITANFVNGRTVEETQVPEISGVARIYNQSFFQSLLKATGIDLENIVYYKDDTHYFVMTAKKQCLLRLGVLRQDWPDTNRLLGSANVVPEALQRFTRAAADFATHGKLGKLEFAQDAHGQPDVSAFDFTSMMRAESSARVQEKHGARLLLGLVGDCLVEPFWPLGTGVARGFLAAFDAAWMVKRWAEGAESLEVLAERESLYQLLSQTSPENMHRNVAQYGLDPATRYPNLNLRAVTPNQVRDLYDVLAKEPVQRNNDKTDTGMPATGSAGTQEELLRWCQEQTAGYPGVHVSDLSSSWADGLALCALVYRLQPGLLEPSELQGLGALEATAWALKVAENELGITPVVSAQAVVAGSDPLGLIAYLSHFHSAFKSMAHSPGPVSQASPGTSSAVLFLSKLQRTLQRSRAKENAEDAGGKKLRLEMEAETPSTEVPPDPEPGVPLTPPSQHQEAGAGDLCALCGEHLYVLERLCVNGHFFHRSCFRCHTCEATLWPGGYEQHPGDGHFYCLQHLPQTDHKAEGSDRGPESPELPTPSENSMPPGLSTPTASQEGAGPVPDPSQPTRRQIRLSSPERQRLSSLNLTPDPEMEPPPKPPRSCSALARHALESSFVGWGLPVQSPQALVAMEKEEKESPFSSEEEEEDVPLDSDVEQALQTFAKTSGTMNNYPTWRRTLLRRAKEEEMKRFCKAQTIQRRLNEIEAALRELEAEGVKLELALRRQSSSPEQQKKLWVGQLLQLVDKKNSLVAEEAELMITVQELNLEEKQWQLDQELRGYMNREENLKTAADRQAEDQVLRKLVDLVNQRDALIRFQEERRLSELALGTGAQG", "assay": "co-IP", "note": "Results are given in words; binding and its absence hold for the method and conditions named. Binding seen in cells or lysates may run through a third protein. Where a sequence is shown, tags or fusion partners need not be part of it."}
{"substance": "coronin-1C (from UniProt Q9ULV4 1-474)", "values": [{"measurement": "binding", "value": "no binding"}]}
